± gives the standard deviation of the averaged measurements. This is one part of the list.
Compound: Nc1nc2c(ncn2[C@@H]2O[C@H](COP(=O)(O)OP(=O)(O)OP(=O)(O)O)[C@@H](O)[C@H]2O)c(=O)[nH]1 [guanosine triphosphate]
Assay: NP40-soluble protein abundance relative to vehicle (solubility fold change) (ratio); higher = more soluble protein in presence of GTP
Procedure, shortened: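 Data come from three independent experiments in which Dounce-homogenised Jurkat crude lysate was treated at eight concentrations from 0.1 to 10 mM. Treatment ran 10 min at room temperature and then 3 min at 37 °C, after which 0.8% NP40 and benzonase were added for 60 min at 4 °C before ultracentrifugation. The supernatant underwent TMT labelling and LC-MS/MS, and vsn-normalised intensities were expressed as fold change against the detergent-processed vehicle in each replicate.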

Amino acid sequences for entries named in this document (tags omitted). A change or cut given only in a name is not applied to a line headed by its entry.
UniProt P28074: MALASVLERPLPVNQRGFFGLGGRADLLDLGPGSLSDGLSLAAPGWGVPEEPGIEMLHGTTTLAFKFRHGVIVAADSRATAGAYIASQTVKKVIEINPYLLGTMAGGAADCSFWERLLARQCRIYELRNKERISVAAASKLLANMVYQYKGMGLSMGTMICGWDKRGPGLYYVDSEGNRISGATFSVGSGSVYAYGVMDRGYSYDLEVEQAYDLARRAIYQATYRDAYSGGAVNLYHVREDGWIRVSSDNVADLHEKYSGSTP
UniProt P32519: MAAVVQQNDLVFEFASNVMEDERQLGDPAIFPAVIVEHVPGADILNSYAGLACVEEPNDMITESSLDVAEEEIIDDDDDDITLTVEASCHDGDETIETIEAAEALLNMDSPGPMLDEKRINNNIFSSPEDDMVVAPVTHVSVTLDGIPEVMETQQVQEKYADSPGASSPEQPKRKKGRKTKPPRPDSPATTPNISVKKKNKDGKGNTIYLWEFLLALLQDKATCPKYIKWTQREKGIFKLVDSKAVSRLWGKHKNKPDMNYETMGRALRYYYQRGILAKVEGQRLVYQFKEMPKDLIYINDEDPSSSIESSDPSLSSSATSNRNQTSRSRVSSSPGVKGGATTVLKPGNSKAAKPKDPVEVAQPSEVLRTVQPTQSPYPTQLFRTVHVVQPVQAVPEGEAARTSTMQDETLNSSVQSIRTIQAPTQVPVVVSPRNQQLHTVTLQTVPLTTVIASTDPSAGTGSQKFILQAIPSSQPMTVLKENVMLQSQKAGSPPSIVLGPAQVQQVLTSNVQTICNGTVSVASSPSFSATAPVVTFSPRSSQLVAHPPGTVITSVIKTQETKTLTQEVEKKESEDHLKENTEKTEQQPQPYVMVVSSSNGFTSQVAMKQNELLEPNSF
UniProt P29590: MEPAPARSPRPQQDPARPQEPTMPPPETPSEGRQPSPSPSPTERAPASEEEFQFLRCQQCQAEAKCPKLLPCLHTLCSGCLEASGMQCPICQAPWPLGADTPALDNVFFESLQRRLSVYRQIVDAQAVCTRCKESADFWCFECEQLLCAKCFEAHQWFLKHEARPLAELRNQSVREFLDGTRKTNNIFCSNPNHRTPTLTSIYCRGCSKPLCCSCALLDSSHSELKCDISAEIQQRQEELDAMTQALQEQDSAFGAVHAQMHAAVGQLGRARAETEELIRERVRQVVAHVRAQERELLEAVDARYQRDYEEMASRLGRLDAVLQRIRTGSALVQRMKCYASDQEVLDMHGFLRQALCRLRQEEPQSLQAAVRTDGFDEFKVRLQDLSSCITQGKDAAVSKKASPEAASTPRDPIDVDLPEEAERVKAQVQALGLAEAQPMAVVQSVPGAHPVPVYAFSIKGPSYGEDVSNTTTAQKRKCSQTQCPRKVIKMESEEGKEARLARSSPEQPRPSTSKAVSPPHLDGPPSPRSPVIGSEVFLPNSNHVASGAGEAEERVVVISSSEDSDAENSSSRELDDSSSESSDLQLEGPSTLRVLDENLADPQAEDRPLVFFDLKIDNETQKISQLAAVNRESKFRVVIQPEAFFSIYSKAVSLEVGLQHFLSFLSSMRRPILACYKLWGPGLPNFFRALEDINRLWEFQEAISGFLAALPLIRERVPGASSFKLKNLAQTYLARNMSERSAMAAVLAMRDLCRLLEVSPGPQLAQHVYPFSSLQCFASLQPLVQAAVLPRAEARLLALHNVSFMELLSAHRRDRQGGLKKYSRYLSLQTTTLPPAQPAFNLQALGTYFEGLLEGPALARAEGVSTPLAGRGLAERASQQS
UniProt P42684, whole entry: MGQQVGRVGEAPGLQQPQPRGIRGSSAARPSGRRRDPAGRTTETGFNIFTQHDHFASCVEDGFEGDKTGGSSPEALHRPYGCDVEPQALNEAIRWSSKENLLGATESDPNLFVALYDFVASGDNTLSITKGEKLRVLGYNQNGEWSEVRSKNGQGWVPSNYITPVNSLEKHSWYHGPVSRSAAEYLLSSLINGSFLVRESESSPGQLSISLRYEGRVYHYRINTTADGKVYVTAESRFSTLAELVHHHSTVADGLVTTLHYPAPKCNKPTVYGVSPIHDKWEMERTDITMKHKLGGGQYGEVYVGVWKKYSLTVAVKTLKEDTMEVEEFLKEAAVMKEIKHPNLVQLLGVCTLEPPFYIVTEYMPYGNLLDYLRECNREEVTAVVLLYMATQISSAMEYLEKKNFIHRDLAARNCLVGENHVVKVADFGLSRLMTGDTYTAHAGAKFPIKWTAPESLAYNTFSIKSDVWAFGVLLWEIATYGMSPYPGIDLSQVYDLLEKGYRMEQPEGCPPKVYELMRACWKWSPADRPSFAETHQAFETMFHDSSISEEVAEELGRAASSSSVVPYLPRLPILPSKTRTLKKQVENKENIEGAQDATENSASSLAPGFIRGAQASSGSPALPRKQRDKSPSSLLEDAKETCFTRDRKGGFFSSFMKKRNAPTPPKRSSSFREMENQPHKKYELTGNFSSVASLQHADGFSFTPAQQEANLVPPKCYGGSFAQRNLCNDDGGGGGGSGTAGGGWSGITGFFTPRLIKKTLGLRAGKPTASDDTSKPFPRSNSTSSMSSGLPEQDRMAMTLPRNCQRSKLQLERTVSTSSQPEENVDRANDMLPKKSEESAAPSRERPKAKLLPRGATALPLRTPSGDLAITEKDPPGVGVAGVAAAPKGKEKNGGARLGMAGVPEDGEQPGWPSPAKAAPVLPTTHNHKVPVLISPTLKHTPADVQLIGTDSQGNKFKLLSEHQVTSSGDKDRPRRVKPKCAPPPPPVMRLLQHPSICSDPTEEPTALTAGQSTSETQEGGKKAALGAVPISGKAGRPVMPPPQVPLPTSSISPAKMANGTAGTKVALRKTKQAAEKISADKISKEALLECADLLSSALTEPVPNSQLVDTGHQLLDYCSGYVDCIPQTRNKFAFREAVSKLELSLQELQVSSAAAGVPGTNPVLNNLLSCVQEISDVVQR
UniProt P50148, whole entry: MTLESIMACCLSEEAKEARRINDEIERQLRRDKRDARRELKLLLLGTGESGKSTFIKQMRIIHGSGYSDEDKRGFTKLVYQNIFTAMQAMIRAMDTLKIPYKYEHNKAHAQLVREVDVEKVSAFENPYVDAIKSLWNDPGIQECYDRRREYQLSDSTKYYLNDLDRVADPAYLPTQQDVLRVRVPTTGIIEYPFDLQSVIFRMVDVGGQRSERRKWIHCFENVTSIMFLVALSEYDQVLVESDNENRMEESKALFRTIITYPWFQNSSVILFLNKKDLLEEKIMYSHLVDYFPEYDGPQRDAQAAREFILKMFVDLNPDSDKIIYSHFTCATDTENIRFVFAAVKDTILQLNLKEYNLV
UniProt P30281: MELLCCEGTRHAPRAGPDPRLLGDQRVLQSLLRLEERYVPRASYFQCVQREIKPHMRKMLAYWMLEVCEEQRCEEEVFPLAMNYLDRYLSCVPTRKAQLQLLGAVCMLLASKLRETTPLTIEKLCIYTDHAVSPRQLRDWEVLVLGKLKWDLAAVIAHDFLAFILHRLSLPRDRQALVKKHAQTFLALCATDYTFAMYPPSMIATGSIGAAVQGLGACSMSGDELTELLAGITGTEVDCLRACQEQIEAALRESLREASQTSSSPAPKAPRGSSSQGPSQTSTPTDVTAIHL
UniProt P42696: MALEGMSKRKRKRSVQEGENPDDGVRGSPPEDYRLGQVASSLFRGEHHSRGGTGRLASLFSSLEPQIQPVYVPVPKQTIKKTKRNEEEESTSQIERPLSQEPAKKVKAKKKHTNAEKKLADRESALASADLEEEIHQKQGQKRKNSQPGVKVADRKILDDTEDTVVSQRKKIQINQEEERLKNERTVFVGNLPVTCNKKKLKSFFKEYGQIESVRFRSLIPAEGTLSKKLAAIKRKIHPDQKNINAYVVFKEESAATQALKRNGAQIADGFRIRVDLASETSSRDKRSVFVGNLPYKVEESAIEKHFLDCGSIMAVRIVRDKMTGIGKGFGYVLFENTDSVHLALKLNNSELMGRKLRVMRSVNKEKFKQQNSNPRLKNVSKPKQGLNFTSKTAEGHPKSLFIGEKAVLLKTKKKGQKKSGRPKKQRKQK
UniProt P27361, whole entry: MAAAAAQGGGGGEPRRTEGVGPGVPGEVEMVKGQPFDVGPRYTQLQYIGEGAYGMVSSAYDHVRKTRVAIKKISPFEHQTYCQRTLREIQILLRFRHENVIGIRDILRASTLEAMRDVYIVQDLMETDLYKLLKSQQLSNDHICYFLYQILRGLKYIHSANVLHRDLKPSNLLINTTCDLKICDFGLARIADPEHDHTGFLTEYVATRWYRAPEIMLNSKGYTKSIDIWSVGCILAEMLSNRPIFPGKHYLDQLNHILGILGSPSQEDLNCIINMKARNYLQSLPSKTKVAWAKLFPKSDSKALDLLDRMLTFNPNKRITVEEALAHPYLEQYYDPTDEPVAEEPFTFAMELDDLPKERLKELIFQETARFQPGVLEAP
UniProt P33992: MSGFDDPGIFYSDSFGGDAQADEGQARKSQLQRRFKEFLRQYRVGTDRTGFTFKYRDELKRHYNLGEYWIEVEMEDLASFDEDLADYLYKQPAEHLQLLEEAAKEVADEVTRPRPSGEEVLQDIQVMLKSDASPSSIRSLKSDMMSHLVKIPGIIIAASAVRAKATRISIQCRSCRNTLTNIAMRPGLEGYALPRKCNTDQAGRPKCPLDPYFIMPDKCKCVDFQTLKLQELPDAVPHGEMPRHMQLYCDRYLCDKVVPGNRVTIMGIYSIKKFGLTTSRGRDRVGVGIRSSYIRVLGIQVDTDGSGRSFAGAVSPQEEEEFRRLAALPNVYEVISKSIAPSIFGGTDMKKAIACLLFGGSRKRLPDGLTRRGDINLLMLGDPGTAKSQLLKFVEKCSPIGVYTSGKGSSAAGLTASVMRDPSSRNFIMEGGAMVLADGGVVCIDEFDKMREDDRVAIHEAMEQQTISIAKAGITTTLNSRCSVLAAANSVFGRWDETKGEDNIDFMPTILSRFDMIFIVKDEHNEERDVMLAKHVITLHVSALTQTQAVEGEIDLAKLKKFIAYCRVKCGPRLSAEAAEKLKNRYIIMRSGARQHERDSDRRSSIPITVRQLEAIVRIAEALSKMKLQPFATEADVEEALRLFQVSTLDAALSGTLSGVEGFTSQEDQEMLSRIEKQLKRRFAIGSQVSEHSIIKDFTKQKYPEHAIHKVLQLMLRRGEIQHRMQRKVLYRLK
UniProt P48047: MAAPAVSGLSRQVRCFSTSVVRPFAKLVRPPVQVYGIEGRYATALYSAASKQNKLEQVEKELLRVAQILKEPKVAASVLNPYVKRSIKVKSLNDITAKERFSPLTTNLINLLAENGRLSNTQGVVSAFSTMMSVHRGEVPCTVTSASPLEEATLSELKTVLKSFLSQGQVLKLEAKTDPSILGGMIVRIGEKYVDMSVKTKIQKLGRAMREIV
UniProt P29016: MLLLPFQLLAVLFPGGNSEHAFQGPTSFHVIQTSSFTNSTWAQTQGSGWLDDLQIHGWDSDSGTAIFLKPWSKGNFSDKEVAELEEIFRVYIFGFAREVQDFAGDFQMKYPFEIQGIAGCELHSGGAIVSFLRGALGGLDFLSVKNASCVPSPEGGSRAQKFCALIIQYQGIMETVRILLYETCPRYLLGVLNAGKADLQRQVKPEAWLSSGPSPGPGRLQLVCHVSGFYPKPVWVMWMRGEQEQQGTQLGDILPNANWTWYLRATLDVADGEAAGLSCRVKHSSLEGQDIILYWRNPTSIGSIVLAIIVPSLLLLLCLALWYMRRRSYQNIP
UniProt P41212: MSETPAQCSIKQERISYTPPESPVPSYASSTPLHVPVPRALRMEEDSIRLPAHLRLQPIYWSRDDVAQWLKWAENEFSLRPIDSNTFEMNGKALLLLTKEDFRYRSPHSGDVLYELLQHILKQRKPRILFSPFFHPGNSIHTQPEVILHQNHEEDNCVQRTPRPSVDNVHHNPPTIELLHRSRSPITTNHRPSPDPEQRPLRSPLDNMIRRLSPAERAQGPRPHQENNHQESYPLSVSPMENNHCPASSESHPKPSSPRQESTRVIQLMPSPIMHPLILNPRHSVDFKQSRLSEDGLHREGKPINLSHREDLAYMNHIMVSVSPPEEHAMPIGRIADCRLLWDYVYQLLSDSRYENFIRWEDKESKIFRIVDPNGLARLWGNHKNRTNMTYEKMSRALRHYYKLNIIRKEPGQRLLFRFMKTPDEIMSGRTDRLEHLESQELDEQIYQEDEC
UniProt P32929, whole entry: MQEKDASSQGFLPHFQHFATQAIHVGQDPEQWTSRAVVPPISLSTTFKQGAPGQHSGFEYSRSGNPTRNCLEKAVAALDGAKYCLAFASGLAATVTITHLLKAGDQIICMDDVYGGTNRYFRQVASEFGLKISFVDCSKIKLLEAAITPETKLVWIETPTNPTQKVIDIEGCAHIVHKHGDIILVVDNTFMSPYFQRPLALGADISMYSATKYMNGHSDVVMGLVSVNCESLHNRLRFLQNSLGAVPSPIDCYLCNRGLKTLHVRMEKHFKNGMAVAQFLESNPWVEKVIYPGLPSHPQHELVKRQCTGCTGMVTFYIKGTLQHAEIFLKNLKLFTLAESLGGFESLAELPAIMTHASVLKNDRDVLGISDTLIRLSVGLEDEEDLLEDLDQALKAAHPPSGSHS

Target | NP40-soluble protein abundance (concentration: 0.1mM) | NP40-soluble protein abundance (concentration: 0.5mM) | NP40-soluble protein abundance (concentration: 1mM) | NP40-soluble protein abundance (concentration: 2mM) | NP40-soluble protein abundance (concentration: 4mM) | NP40-soluble protein abundance (concentration: 6mM) | NP40-soluble protein abundance (concentration: 8mM) | NP40-soluble protein abundance (concentration: 10mM)
PSMB5 (UniProt P28074) | 1.01 ± 0.12 | 1.09 ± 0.23 | 0.916 ± 0.17 | 1.08 ± 0.29 | 1.15 ± 0.33 | 1.05 ± 0.35 | 0.945 ± 0.14 | 0.99 ± 0.15
UniProt P49336 and related entries | 1.04 ± 0.14 | 1.09 ± 0.1 | 1.1 ± 0.14 | 1.19 ± 0.18 | 1.13 ± 0.095 | 1.1 ± 0.097 | 1.22 ± 0.12 | 1.1 ± 0.053
PSMC2 (UniProt P35998) | 0.991 ± 0.026 | 1.03 ± 0.061 | 1.03 ± 0.086 | 1.06 ± 0.1 | 1.06 ± 0.087 | 1.08 ± 0.14 | 1.08 ± 0.13 | 1.06 ± 0.14
CSK (UniProt P41240) | 0.993 ± 0.016 | 0.982 ± 0.018 | 0.929 ± 0.043 | 0.898 ± 0.045 | 0.884 ± 0.06 | 0.874 ± 0.056 | 0.862 ± 0.065 | 0.829 ± 0.081
UniProt P45984 and related entries | 1.02 ± 0.14 | 1 ± 0.099 | 0.984 ± 0.069 | 0.971 ± 0.14 | 0.926 ± 0.17 | 0.968 ± 0.24 | 0.965 ± 0.14 | 0.922 ± 0.14
CPOX (UniProt P36551) | 1.01 ± 0.031 | 1.01 ± 0.032 | 0.929 ± 0.062 | 0.917 ± 0.04 | 0.951 ± 0.034 | 0.911 ± 0.054 | 0.881 ± 0.034 | 0.876 ± 0.051
UniProt P32519 and related entries | 0.932 ± 0.036 | 0.949 ± 0.066 | 0.933 ± 0.032 | 0.913 ± 0.077 | 0.881 ± 0.065 | 0.916 ± 0.084 | 0.935 ± 0.049 | 0.922 ± 0.071
UniProt P29590 and related entries | 0.929 ± 0.072 | 0.925 ± 0.07 | 0.953 ± 0.09 | 0.923 ± 0.11 | 0.904 ± 0.088 | 0.933 ± 0.087 | 0.917 ± 0.066 | 0.939 ± 0.068
UniProt P28907 | 0.92 ± 0.058 | 0.876 ± 0.075 | 0.927 ± 0.063 | 0.902 ± 0.091 | 0.891 ± 0.088 | 0.925 ± 0.088 | 0.895 ± 0.1 | 0.894 ± 0.058
UniProt P29218 and related entries | 1 ± 0.03 | 0.998 ± 0.017 | 0.925 ± 0.042 | 0.907 ± 0.05 | 0.89 ± 0.051 | 0.893 ± 0.066 | 0.909 ± 0.042 | 0.87 ± 0.069
UniProt P42684 and related entries | 1.03 ± 0.055 | 1.02 ± 0.043 | 1.09 ± 0.052 | 1.1 ± 0.029 | 1.05 ± 0.078 | 1.06 ± 0.14 | 1.04 ± 0.028 | 1.05 ± 0.019
RPL27A (UniProt P46776) | 1.02 ± 0.095 | 0.993 ± 0.11 | 1.06 ± 0.13 | 1.06 ± 0.18 | 0.984 ± 0.17 | 0.907 ± 0.16 | 0.838 ± 0.19 | 0.984 ± 0.22
UniProt P28331 and related entries | 1.05 ± 0.054 | 1.06 ± 0.086 | 1.07 ± 0.1 | 1.11 ± 0.14 | 1.14 ± 0.17 | 1.12 ± 0.17 | 1.11 ± 0.15 | 1.1 ± 0.16
RPL4 (UniProt P36578) | 1.03 ± 0.079 | 1.06 ± 0.093 | 1.08 ± 0.16 | 1.05 ± 0.23 | 0.96 ± 0.28 | 0.876 ± 0.23 | 0.692 ± 0.2 | 0.897 ± 0.24
GNL1 (UniProt P36915) | 1.05 ± 0.023 | 1.03 ± 0.019 | 0.972 ± 0.033 | 0.95 ± 0.015 | 0.9647 ± 0.0095 | 0.944 ± 0.02 | 0.959 ± 0.045 | 0.906 ± 0.061
NMT1 (UniProt P30419) | 1.08 ± 0.027 | 1.041 ± 0.0069 | 1.02 ± 0.043 | 1.04 ± 0.052 | 1.1 ± 0.086 | 1.09 ± 0.061 | 1.09 ± 0.089 | 1.09 ± 0.099
GNAQ (UniProt P50148) | 0.986 ± 0.015 | 1.02 ± 0.013 | 0.959 ± 0.056 | 0.942 ± 0.053 | 0.903 ± 0.03 | 0.927 ± 0.04 | 0.878 ± 0.03 | 0.886 ± 0.065
UniProt P30281 and related entries | 1.05 ± 0.078 | 1.03 ± 0.06 | 0.889 ± 0.03 | 0.941 ± 0.02 | 0.922 ± 0.032 | 0.884 ± 0.0096 | 0.832 ± 0.02 | 0.863 ± 0.06
RBM34 (UniProt P42696) | 1.08 ± 0.0039 | 1.05 ± 0.034 | 1.14 ± 0.028 | 1.23 ± 0.065 | 1.41 ± 0.066 | 1.57 ± 0.12 | 1.68 ± 0.12 | 1.83 ± 0.066
UniProt P27361 | 0.954 ± 0.069 | 0.96 ± 0.059 | 0.923 ± 0.053 | 0.897 ± 0.059 | 0.901 ± 0.058 | 0.89 ± 0.043 | 0.879 ± 0.072 | 0.877 ± 0.086
MTIF2 (UniProt P46199) | 1.04 ± 0.038 | 1.08 ± 0.12 | 1 ± 0.087 | 1.05 ± 0.022 | 0.975 ± 0.067 | 0.949 ± 0.052 | 0.925 ± 0.032 | 0.937 ± 0.037
MCM5 (UniProt P33992) | 1.05 ± 0.077 | 1.07 ± 0.12 | 0.998 ± 0.1 | 1.03 ± 0.16 | 1.05 ± 0.13 | 1.03 ± 0.14 | 1.01 ± 0.1 | 0.97 ± 0.12
UniProt P35606 and related entries | 1.04 ± 0.075 | 1.07 ± 0.11 | 0.994 ± 0.089 | 1.04 ± 0.12 | 1.04 ± 0.12 | 1.03 ± 0.12 | 1.01 ± 0.097 | 0.984 ± 0.087
UniProt P32019 and related entries | 1.12 ± 0.071 | 0.933 ± 0.018 | 0.9946 ± 0.0049 | 0.932 ± 0.066 | 0.949 ± 0.024 | 0.888 ± 0.022 | 0.889 ± 0.0091 | 0.8541 ± 0.0082
UniProt P29144 and related entries | 1.01 ± 0.024 | 1.06 ± 0.062 | 1.02 ± 0.081 | 1.05 ± 0.098 | 1.06 ± 0.1 | 1.05 ± 0.11 | 1.04 ± 0.11 | 1.02 ± 0.11
UniProt P48047 | 0.825 ± 0.17 | 0.839 ± 0.14 | 1.02 ± 0.21 | 1.07 ± 0.2 | 1.04 ± 0.17 | 1.07 ± 0.22 | 0.921 ± 0.17 | 1.06 ± 0.22
UniProt P29016 and related entries | 0.9 ± 0.021 | 0.868 ± 0.057 | 0.871 ± 0.14 | 0.793 ± 0.058 | 0.847 ± 0.016 | 0.848 ± 0.022 | 0.802 ± 0.04 | 0.871 ± 0.045
HSPA9 (UniProt P38646) | 0.919 ± 0.08 | 0.929 ± 0.067 | 0.968 ± 0.073 | 0.91 ± 0.09 | 0.921 ± 0.089 | 0.922 ± 0.076 | 0.938 ± 0.067 | 0.937 ± 0.096
ETV6 (UniProt P41212) | 1.09 ± 0.057 | 1.16 ± 0.099 | 1.15 ± 0.12 | 1.13 ± 0.097 | 1.19 ± 0.1 | 1.12 ± 0.14 | 1.2 ± 0.14 | 1.12 ± 0.13
UniProt P32929 and related entries | 1.03 ± 0.066 | 0.984 ± 0.084 | 0.902 ± 0.011 | 0.909 ± 0.085 | 0.893 ± 0.047 | 0.888 ± 0.047 | 0.875 ± 0.0037 | 0.847 ± 0.035

Whole records as entered above.
CPOX (UniProt P36551) reads NP40-soluble protein abundance (concentration: 0.1mM): 1.01 ± 0.031; NP40-soluble protein abundance (concentration: 0.5mM): 1.01 ± 0.032; NP40-soluble protein abundance (concentration: 1mM): 0.929 ± 0.062; NP40-soluble protein abundance (concentration: 2mM): 0.917 ± 0.04; NP40-soluble protein abundance (concentration: 4mM): 0.951 ± 0.034; NP40-soluble protein abundance (concentration: 6mM): 0.911 ± 0.054; NP40-soluble protein abundance (concentration: 8mM): 0.881 ± 0.034; NP40-soluble protein abundance (concentration: 10mM): 0.876 ± 0.051
MCM5 (UniProt P33992) reads NP40-soluble protein abundance (concentration: 0.1mM): 1.05 ± 0.077; NP40-soluble protein abundance (concentration: 0.5mM): 1.07 ± 0.12; NP40-soluble protein abundance (concentration: 1mM): 0.998 ± 0.1; NP40-soluble protein abundance (concentration: 2mM): 1.03 ± 0.16; NP40-soluble protein abundance (concentration: 4mM): 1.05 ± 0.13; NP40-soluble protein abundance (concentration: 6mM): 1.03 ± 0.14; NP40-soluble protein abundance (concentration: 8mM): 1.01 ± 0.1; NP40-soluble protein abundance (concentration: 10mM): 0.97 ± 0.12
